Assay results as given in publication PMC3393671.
Results are given in words; binding and its absence hold for the method and conditions named. In cells and extracts the contact can be indirect. These calls come from enrichment with a bait or labelling near it, and not all partners need be listed. Tags and fused reporters may be left off the sequences shown.

Target: T1, GST-Irga6 (mouse) (UniProt Q9QZ85)
T1 sequence: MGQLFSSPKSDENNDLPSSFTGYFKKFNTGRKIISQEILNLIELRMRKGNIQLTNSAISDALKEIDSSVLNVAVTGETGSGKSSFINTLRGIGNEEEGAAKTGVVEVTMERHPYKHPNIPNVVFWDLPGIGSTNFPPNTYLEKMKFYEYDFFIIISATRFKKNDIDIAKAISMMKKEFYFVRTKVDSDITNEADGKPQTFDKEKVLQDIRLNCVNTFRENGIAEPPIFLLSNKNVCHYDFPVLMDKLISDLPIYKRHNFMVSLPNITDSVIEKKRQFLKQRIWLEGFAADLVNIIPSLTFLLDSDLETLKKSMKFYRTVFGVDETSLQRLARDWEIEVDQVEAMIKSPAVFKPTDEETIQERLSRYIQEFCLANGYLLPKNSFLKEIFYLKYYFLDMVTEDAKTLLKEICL
Assay: affinity purification with mass spectrometry; GST-Irga6 on Glutathione Sepharose 4B beads; detergent lysate of IFNγ-induced L929 fibroblasts infected 2 h with T. gondii RH-YFP; o/n at 4°C; differential silver-stained bands analysed by MS; GST-loaded beads in parallel; only the target purified

Question: With ROP5B of T. gondii strain RH-YFP as the substance, how does the binding read?
Answer: binds

Question: How did the binding turn out when ROP5A of T. gondii strain RH-YFP was run?
Answer: binds

Question: For ROP5C of T. gondii strain RH-YFP, which binding is on record?
Answer: binds
